Counter-ions that a name gives are not always drawn. Some of the results follow. Repeats in this data set agree poorly, so a single value says little.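 The human kidney-derived cells carry a stably integrated construct of eight TEAD-binding elements driving luciferase, read by luminescence in a drug-repurposing library screen. A compound counts as a hit when its signal is more than five robust Z scores above the plate mean.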
System: HEK293A TEAD-LUC reporter
Assay: TEAD-luciferase reporter activity (YAP activation), robust Z score vs plate; higher = stronger YAP/TEAD activation
Conditions: 24 h

SMILES | TEAD-luciferase reporter activity (compound concentration: 200 nM) | TEAD-luciferase reporter activity (compound concentration: 2 uM) | TEAD-luciferase reporter activity (compound concentration: 10 uM)
COc1ccc2cc([C@H](C)C(=O)OCCS(C)(=O)=O)ccc2c1 [naproxen etemesil] | inactive: 0.785 | inactive: -1.18 | inactive: 1.87
O=C(CCCCC(=O)Nc1c(I)cc(I)c(C(=O)O)c1I)Nc1c(I)cc(I)c(C(=O)O)c1I [Iodipamide] | inactive: -0.985 | inactive: 0.0648 | inactive: -0.38
COc1ccc(-c2sc(NC(=O)c3cc(OC)c(OC)c(OC)c3)nc2-c2ccccc2)cc1 | inactive: -1.1 | inactive: -0.595 | inactive: -1.14
O=C1NC(O)CCN1[C@@H]1O[C@H](CO)[C@@H](O)[C@H]1O (stereo partly specified) [Tetrahydrouridine] | inactive: -0.786 | inactive: -2.31 | inactive: -0.469
N=C(NCCCc1cnc[nH]1)NCCC(c1ccc(F)cc1)c1ccccn1 (stereo unspecified) | inactive: -1.69 | inactive: 2.3 | inactive: -0.628
Oc1c(-n2ccnn2)cnn1-c1cc(N2CCOCC2)ncn1 [Molidustat sodium] | – | inactive: -1.52 | –
Oc1c(-n2ccnn2)cnn1-c1cc(N2CCOCC2)ncn1 [molidustat] | inactive: 0.147 | – | inactive: -1.35
N#Cc1cc(-c2ccccc2)nnc1NCCN1CCOCC1 | inactive: -0.639 | inactive: -1.28 | inactive: -0.807
CC(=O)N[C@@H](Cc1ccc(OP(=O)(O)O)cc1)C(=O)N[C@H](C)c1ccc(OCC2CCCCC2)c(C(N)=O)c1 | inactive: -0.936 | inactive: 0.489 | inactive: 1.72
COc1cc(C(=O)c2c(C)oc3c(O)c(OC)ccc23)cc(OC)c1OC | inactive: -1.34 | inactive: 1.51 | inactive: 0.798
Cc1ccc(Nc2c(F)cccc2Cl)c(CC(=O)O)c1 | inactive: -2.61 | – | inactive: -1.03
Cc1ccc(Nc2c(F)cccc2Cl)c(CC(=O)O)c1 [lumiracoxib] | – | inactive: 4.72 | –
Nc1cc2c3ccccc3ccc2c2ccccc12 [6-Aminochrysene] | inactive: -2.99 | inactive: -3.79 | inactive: 1.01
Cc1cc2c(cc1C(F)(F)F)N(C(=O)Nc1ccc(Oc3cccnc3C)nc1)CC2 | inactive: -2.15 | inactive: -2.4 | inactive: -0.928
C[C@H]1C[C@H]2[C@@H]3CCC4=CC(=O)C=C[C@]4(C)[C@@]3(F)[C@@H](O)C[C@]2(C)[C@@]1(OC(=O)c1ccccc1)C(=O)CO | inactive: 1.53 | inactive: -0.491 | inactive: 4.72
O=C(OCCOCCO)c1ccccc1Nc1cccc(C(F)(F)F)c1 [etofenamate] | inactive: -1.39 | inactive: 1.01 | inactive: -0.915
CC(C)S(=O)(=O)N[C@H]1COC[C@H]1Oc1ccc(-c2ccc(C#N)s2)cc1 | inactive: -0.879 | inactive: -0.0318 | inactive: 1.73
COc1cccc(C(=O)O)c1OC(C)=O | inactive: -0.901 | inactive: 0.023 | inactive: 1.27
CC1(C)O[C@@H]2C[C@H]3[C@@H]4CCC5=CC(=O)CC[C@]5(C)[C@@]4(F)[C@@H](O)C[C@]3(C)[C@]2(C(=O)CCl)O1 [Halcinonide] | inactive: -0.563 | inactive: 0.606 | inactive: -0.024
O=C(Nc1ccc(OC(F)(F)F)cc1)c1sccc1NCc1ccnc2ccccc12 | active: 7.2 | active: 5.64 | inactive: 0.847
Cc1cc(-c2ccc(/N=N/c3c(S(=O)(=O)O)cc4cc(S(=O)(=O)O)cc(N)c4c3O)c(C)c2)ccc1/N=N/c1c(S(=O)(=O)O)cc2cc(S(=O)(=O)O)cc(N)c2c1O | inactive: -1.3 | inactive: -3.54 | inactive: -2.34
CCC(C)CCCCC(=O)N[C@@H](CCN)C(=O)N[C@H](C(=O)N[C@@H](CCN)C(=O)N[C@H]1CCNC(=O)[C@H]([C@@H](C)O)NC(=O)[C@H](CCN)NC(=O)[C@H](CCN)NC(=O)[C@H](CC(C)C)NC(=O)[C@@H](CC(C)C)NC(=O)[C@H](CCN)NC1=O)[C@@H](C)O (stereo partly specified) [Colistin sulfate] | inactive: -0.146 | inactive: -0.477 | inactive: 2.8
COC(=O)[C@H](CC(C)C)NC(=O)[C@H](Cc1cnc[nH]1)NC(=O)[C@@H](C)NC(=O)[C@@H](NC(=O)[C@H](C)NC(=O)[C@H](Cc1c[nH]c2ccccc12)NC(=O)[C@H](CCC(N)=O)NC(=O)[C@H](N)Cc1c(F)c(F)c(F)c(F)c1F)C(C)C | inactive: -0.592 | inactive: 0.00727 | inactive: 0.135
OC[C@H]1OC2(CO)OC[C@@]3(O[C@H](CO)[C@@H](O)[C@@H]3O)O[C@H]2[C@@H]1O (stereo partly specified) [Difructose Anhydride III] | inactive: -1.13 | inactive: -0.0888 | inactive: 2.96

SMILES | TEAD-luciferase reporter activity (compound concentration: 200 nM) | TEAD-luciferase reporter activity (compound concentration: 2 uM) | TEAD-luciferase reporter activity (compound concentration: 10 uM)
Cn1nc(NCCCOc2cccc3c2CCC3N2CCCCC2)nc1N (stereo unspecified) | inactive: -2.79 | inactive: 0.227 | inactive: 1.91
CCS(=O)(=O)c1ccc(CNC(=O)c2cnc3c(c2)CN(C[C@H]2CC[C@H](C(F)(F)F)CC2)[C@H]3C(C)C)nc1 | inactive: 0.531 | inactive: -0.812 | inactive: -1.27
COc1ccc(-n2nc(CCC(=O)N(C)O)cc2-c2ccc(Cl)cc2)cc1 [tepoxalin] | inactive: -1.17 | inactive: -2.08 | inactive: 0.715
CCc1nc2c(C)cc(C)nc2n1Cc1ccc2nc(-c3ccccc3C(=O)O)ccc2c1 | inactive: -0.716 | inactive: -0.0607 | inactive: -0.548
COc1ccc(F)cc1-c1ccc(CN2CCC(NC(=O)c3ccccc3Cl)C2)cc1 (stereo unspecified) | active: 5.14 | – | inactive: 0.464
CC(C)(C)N[C@@H]1C=CC(c2ccccc2)(c2ccccc2)C1 | inactive: -1.89 | inactive: -1.45 | inactive: -0.58
CC1CCCC(OC(=O)C[N+](C)(C)CCCCCCCCCC[N+](C)(C)CC(=O)C2CC(C)CCC2C(C)C)C1 (stereo unspecified) | inactive: -0.715 | inactive: -0.905 | inactive: 2.34
Cc1cc2cn([C@H]3C[C@H](O)[C@@H](CO)O3)c(=O)nc2o1 | inactive: -0.81 | inactive: -1.9 | inactive: 0.398
N#Cc1ccc(NCCNCC(=O)N2CCC[C@H]2C#N)nc1 | active: 6.05 | inactive: 1.08 | inactive: 0.752
CN(C)/C=N/c1c(I)cc(I)c(CCC(=O)O)c1I | inactive: -1.83 | inactive: -0.439 | inactive: -1.79
Cc1cc(F)ccc1C1CNCCN1C(=O)N(C)C(C)c1cc(C(F)(F)F)cc(C(F)(F)F)c1 (stereo unspecified) | inactive: 0.0511 | inactive: -1.16 | inactive: 2.23
CC(=O)O[C@]1(C(C)=O)CCC2[C@@H]3C[C@H](C)C4=CC(=O)CC[C@]4(C)C3CC[C@@]21C (stereo partly specified) [Diviseq] | inactive: 1.29 | inactive: 1.51 | inactive: -0.128
COc1c(C)cnc(Cn2cnc3c(Cl)nc(N)nc32)c1C | inactive: -0.675 | inactive: -1.31 | inactive: 0.703
CS(=O)(=O)Nc1ccc2c(c1)C(=O)CC1(CCN(C3CCc4cc(C#N)ccc4C3)CC1)O2 (stereo unspecified) | inactive: -0.114 | inactive: -1.07 | inactive: -1.57
CCC(C)C(=O)O[C@H]1[C@H](O)[C@H]2[C@@H](CN3C[C@@H](C)CC[C@H]3[C@@]2(C)O)[C@@H]2C[C@]34O[C@@]5(O)[C@@H](OC(=O)C(C)(O)C(C)OC(C)=O)CC[C@@]3(C)[C@@H]5C[C@@H](OC(C)=O)[C@H]4[C@@]21O (stereo partly specified) | inactive: -0.64 | inactive: 0.872 | inactive: -0.654
C[C@H]1[C@H](C)CC[C@]2(C)CC[C@]3(C)C(=CC[C@@H]4[C@@]5(C)CC[C@@H](O)[C@](C)(C(=O)O)[C@@H]5CC[C@]43C)[C@H]12 [beta-Boswellic acid] | inactive: -0.769 | inactive: -0.394 | inactive: 4.73
CNc1nc(-c2cccc(NC(=O)c3ccc(C(=O)O)cc3)c2)c2cc(OC)c(OC)cc2n1 | inactive: -0.654 | inactive: -0.615 | inactive: 2.91
O=C(CC(CSc1ccccc1)C(=O)O)c1ccc(-c2ccc(Cl)cc2)cc1 (stereo unspecified) | inactive: -1.1 | inactive: -1.21 | active: 7.63
Cc1[nH]cnc1-c1ccc(Cl)cc1 [lofemizole] | inactive: -0.405 | inactive: -1.31 | inactive: -0.504
Cc1cccc(N2CCN(CCCOc3ccc4ccc(=O)[nH]c4c3)CC2)c1C | inactive: -0.863 | inactive: -0.734 | inactive: -1.29
Cc1c(N)nc([C@H](CC(N)=O)NC[C@H](N)C(N)=O)nc1C(=O)N[C@H](C(=O)N[C@H](C)[C@@H](O)[C@H](C)C(=O)N[C@H](C(=O)NCCc1nc(-c2nc(C(=O)NCCCNCCCCN)cs2)cs1)[C@@H](C)O)[C@@H](O[C@@H]1O[C@@H](CO)[C@@H](O)[C@H](O)[C@@H]1O[C@@H]1O[C@H](CO)[C@@H](O)[C@H](OC(N)=O)[C@@H]1O)c1cnc[nH]1 [Zhengguangmycin A5] | inactive: -1.44 | inactive: -0.649 | inactive: -1.18
COc1ccc(C(=O)NCc2cccnc2)cc1C(=O)NCc1cccnc1 [picotamide] | inactive: -0.784 | inactive: -1.86 | inactive: -2.04
CCN(CC)CC(O)COc1ccccc1C1CC2CCC1C2 (stereo unspecified) | inactive: 0.6 | inactive: -1.31 | inactive: 1.48
O=C(C1CCCC1)N1CCC(n2c(=O)[nH]c3ccccc32)CC1 | inactive: -1.58 | – | inactive: 1.59

Random excerpt: two entries already listed
SMILES | TEAD-luciferase reporter activity (compound concentration: 200 nM) | TEAD-luciferase reporter activity (compound concentration: 2 uM) | TEAD-luciferase reporter activity (compound concentration: 10 uM)
Cc1c(N)nc([C@H](CC(N)=O)NC[C@H](N)C(N)=O)nc1C(=O)N[C@H](C(=O)N[C@H](C)[C@@H](O)[C@H](C)C(=O)N[C@H](C(=O)NCCc1nc(-c2nc(C(=O)NCCCNCCCCN)cs2)cs1)[C@@H](C)O)[C@@H](O[C@@H]1O[C@@H](CO)[C@@H](O)[C@H](O)[C@@H]1O[C@@H]1O[C@H](CO)[C@@H](O)[C@H](OC(N)=O)[C@@H]1O)c1cnc[nH]1 [Zhengguangmycin A5] | inactive: -1.44 | inactive: -0.649 | inactive: -1.18
COc1c(C)cnc(Cn2cnc3c(Cl)nc(N)nc32)c1C | inactive: -0.675 | inactive: -1.31 | inactive: 0.703
